Laboratory results reported in PubChem BioAssay AID1347075 (National Center for Advancing Translational Sciences (NCATS), 2019).
The whole screen tested about 400,000 compounds, of which about 5,500 (1.4%) were called active. This list was built around the results that the source calls inconclusive (neither active nor inactive); the mix of calls is not that of the screen. Calls come from the whole dose curve; as a rule, active = well fitted cell-killing curve with a large enough effect; inconclusive = small, poorly fitted or top-dose-only effect, or effect the other way; inactive = flat fitted curve, though single readings scatter. Potencies of inconclusive entries are doubtful fits and often do not repeat.

assay: qHTS assay for MDR1-selective chemotherapeutics: Primary screen using the parental adenocarcinoma cell KB-3-1; details: KB-3-1 viability, CellTiter-Glo ATP luminescence, 72 h; activity change, negative = cytotoxic: at 46.1 µM (top of the series); note: nearly all actives have a fitted effect of over 60% in size
How it was run: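 Parental KB-3-1 viability, qHTS format: 72 h compound exposure, 37 °C; CellTiter-Glo; media-only wells and DMSO plates as controls; concentration-effect fits on corrected data.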
% is set by controls: 0 for no effect and ±100 for the full control effect; potency is the fitted concentration of half-maximal effect.

Question: With `CC(C)(C)c1cc(C(=O)NNc2cccc(Cl)c2)n(Cc2ccccc2)n1` as the molecule, how does the Potency read?
Answer: inconclusive: 20.6 µM [cytotoxic, single point]

Question: For `Cc1cccc(C)c1NC1=NC2(CCCCC2)N=C(N)N1`, which “activity change, negative = cytotoxic” value is on record?
Answer: inactive: 5.38%

Question: With `O=C(NCCC1CCCCN1S(=O)(=O)c1cccs1)C(=O)NCc1ccccc1` (configuration not stated) as the molecule, how does the Potency read?
Answer: inconclusive: 16.4 µM [cytotoxic, single point]

Question: With `C/C(=N/Nc1nc(-c2ccccc2F)nc2ccccc12)c1ccccc1O` as the molecule, how does the Potency read?
Answer: inconclusive: 2.91 µM [cytotoxic, partial curve, poor fit]

Question: For `O=C(CNC(=O)c1ccc(Br)cc1)c1ccc(Br)cc1`, which “activity change, negative = cytotoxic” value is on record?
Answer: inactive: 18.9%

Question: For `Cc1[nH]c2ccccc2c1C(=O)/C=C/c1ccccc1`, which Potency is on record?
Answer: inconclusive: 29.1 µM [cytotoxic, single point]

Question: For `CCOC(=O)c1ccc(Oc2cc(C)nc(SC)n2)cc1`, which Potency is on record?
Answer: active: 9.2 µM

Question: With `COc1ccc(C(C)(O)c2nc(-c3cccc(O)c3)cs2)cc1` (configuration not stated) as the molecule, how does the Potency read?
Answer: inconclusive: 29.1 µM [cytotoxic, single point]

Question: With `C=C1CCN([C@@H](Cc2ccccc2)C(=O)NCCCc2ccccc2)S(=O)(=O)c2ccccc21` as the molecule, how does the Potency read?
Answer: inconclusive: 29.1 µM [cytotoxic, single point]

Question: For `C/C(CC(=O)N1CCN(C=O)CC1)=N\NC(=O)c1cc2ccccc2cc1O`, which Potency is on record?
Answer: inconclusive: 29.1 µM [cytotoxic, single point]

Question: Which Potency does the source give for `O=C(Nc1ccc(Br)cc1)c1cc([N+](=O)[O-])cc([N+](=O)[O-])c1` here?
Answer: inconclusive: 23.1 µM [cytotoxic, single point]

Question: With `Cc1ccc(NC(=O)CSc2nc(O)cc(=O)n2C)cc1` as the molecule, how does the Potency read?
Answer: inconclusive: 16.4 µM [rising, single point]

Question: For `CCOC(=O)c1cnc(-n2nc(C)cc2C)nc1NC1CCCCC1`, which Potency is on record?
Answer: inconclusive: 20.6 µM [cytotoxic, single point]

Question: For `COc1ccc(S(=O)(=O)N2CC(O)C[C@H]2C(=O)OCC(=O)N2CCCCCC2)cc1` (some centres not stated), which “activity change, negative = cytotoxic” value is on record?
Answer: inactive: 11.5%

Question: For `CCc1cccc(C)c1NC(=O)CN(C)Cc1ccccc1F`, which Potency is on record?
Answer: inconclusive: 14.6 µM [cytotoxic, partial curve, poor fit]

Question: With `Cc1ccc[n+](CC(=O)Nc2ccc(C)c(C)c2)c1` as the molecule, how does the “activity change, negative = cytotoxic” value read?
Answer: inactive: -21.2%

Question: With `CC(=O)c1ccc(N2C(=O)C3C(C2=O)C(C(=O)c2ccc(Cl)cc2)N2CCCC32)cc1` (configuration not stated) as the molecule, how does the Potency read?
Answer: inconclusive: 20.6 µM [cytotoxic, single point]

Question: Which “activity change, negative = cytotoxic” value does the source give for `O=C1c2cccc3cccc(c23)C(=O)N1c1ccc(O)cc1` here?
Answer: inactive: -0.518%

Question: Which “activity change, negative = cytotoxic” value does the source give for `O=C(Nc1ccc(F)cc1)Nc1sccc1-c1nc2ccccc2s1` here?
Answer: inactive: -2.32%

Question: With `Cc1nc(NC(=O)c2ccccc2)sc1-c1csc(NCCc2ccccc2)n1` as the molecule, how does the Potency read?
Answer: inconclusive: 32.6 µM [cytotoxic, single point]

Question: With `O=C(Nc1ccc([N+](=O)[O-])cc1)Nc1ccc(OC(F)F)c(Cl)c1` as the molecule, how does the Potency read?
Answer: active: 5.8 µM

Question: Which “activity change, negative = cytotoxic” value does the source give for `COc1cc2c(cc1OC)CN(C(=O)CCNS(=O)(=O)c1ccccc1F)CC2` here?
Answer: inactive: 0%

Question: For `CCOC(=O)C1CCN(C(=O)COC(=O)/C=C/c2ccc([N+](=O)[O-])cc2)CC1`, which “activity change, negative = cytotoxic” value is on record?
Answer: inactive: -8.85%

Question: For `COc1ccc(CC(=O)Nc2ccc(-c3nc4ccccc4s3)c(C)c2)cc1OC`, which “activity change, negative = cytotoxic” value is on record?
Answer: inactive: -6.17%

Question: With `COc1ccc2nc(NC(C)=O)sc2c1` as the molecule, how does the “activity change, negative = cytotoxic” value read?
Answer: inactive: -7.46%

Question: For `CSc1nn(Cc2ccc(C)cc2)c(N)c1S(=O)(=O)c1ccccc1`, which “activity change, negative = cytotoxic” value is on record?
Answer: inactive: -28.1%

Question: With `OCC1(Cc2ccc(Cl)cc2)CCN(Cc2ccccc2F)CC1` as the molecule, how does the Potency read?
Answer: inconclusive: 29.1 µM [cytotoxic, single point]

Question: For `COc1cc(NC(=O)c2csc(N)n2)cc(C(=O)Nc2cccc(C(F)(F)F)c2)c1`, which Potency is on record?
Answer: active: 5.8 µM

Question: With `CSCCC(NC(=O)COc1ccccc1)C(=O)N1CCN(c2ccccc2Cl)CC1` (configuration not stated) as the molecule, how does the Potency read?
Answer: inconclusive: 18.4 µM [cytotoxic, single point]

Question: Which Potency does the source give for `O=C(NCc1ccccc1Cl)c1ccc2oc(=O)n(Cc3ccccc3)c2c1` here?
Answer: inconclusive: 25.9 µM [cytotoxic, single point]

Question: For `COc1cccc(NC(=O)c2ccc(S(=O)(=O)NCc3cccnc3)cc2)c1`, which “activity change, negative = cytotoxic” value is on record?
Answer: inactive: -27.2%

Question: For `CCCn1c(CN2CCN(C(=O)OCC)CC2)nc2cc(NC(=O)CC)ccc21`, which Potency is on record?
Answer: active: 9.2 µM

Question: Which “activity change, negative = cytotoxic” value does the source give for `O=C(NCc1ccc2c(c1)OCO2)Oc1ccccc1` here?
Answer: inactive: 7.1%

Question: Which Potency does the source give for `O=C(Nc1ccccc1)C1=C(c2ccccc2)S(=O)(=O)CCS1(=O)=O` here?
Answer: inconclusive: 16.4 µM [cytotoxic, single point]

Question: With `COc1cc(Cl)ccc1OCc1cc(C(=O)NCCCN2CCCC2=O)no1` as the molecule, how does the “activity change, negative = cytotoxic” value read?
Answer: inactive: 0.346%

Question: With `Clc1ccccc1Cn1c(/C=C/c2ccco2)nc2ccccc21` as the molecule, how does the Potency read?
Answer: inconclusive: 29.1 µM [cytotoxic, single point]

Question: With `O=C(CSc1nc(-c2ccccc2)c(-c2ccccc2)[nH]1)NCCN1C(=O)CSC1=O` as the molecule, how does the Potency read?
Answer: active: 3.66 µM

Question: For `CC1CCN(CC(=O)Nc2nn(-c3ccccc3)nc2C(N)=O)CC1`, which “activity change, negative = cytotoxic” value is on record?
Answer: inactive: 2.03%

Question: Which Potency does the source give for `CCOC(=O)c1sc(NC(=O)c2cc(-c3ccccc3C)nc3ccccc23)c(C#N)c1C` here?
Answer: active: 8.2 µM

Question: For `Cc1cc(C2N=C(N)Nc3nc4ccccc4n32)c(C)n1-c1ccccc1Cl` (configuration not stated), which “activity change, negative = cytotoxic” value is on record?
Answer: inactive: 15.1%

Question: Which Potency does the source give for `C=CCc1cccc(/C=N/NC(=O)CNc2cccc3ccccc23)c1O` here?
Answer: inconclusive: 16.4 µM [cytotoxic, single point]

Question: Which Potency does the source give for `CC(OC(=O)c1cccc(NS(C)(=O)=O)c1)C(=O)Nc1ccc2c(c1)OCO2` (configuration not stated) here?
Answer: inconclusive: 16.4 µM [cytotoxic, single point]

Question: For `CC(=O)NC(c1cccs1)c1cc(Br)c2cccnc2c1O` (configuration not stated), which Potency is on record?
Answer: inconclusive: 11.6 µM [cytotoxic, partial curve, poor fit]

Question: For `Cc1ccc(-c2nnc(Nc3ccccc3)c3ccccc23)cc1S(=O)(=O)NCC1CCCO1` (configuration not stated), which Potency is on record?
Answer: inconclusive: 18.4 µM [cytotoxic, single point]

Question: Which Potency does the source give for `CCCC(=O)Nc1ccc(C(=O)N/N=C/c2ccc([N+](=O)[O-])o2)cc1` here?
Answer: inconclusive: 29.1 µM [cytotoxic, single point]

Question: Which Potency does the source give for `CCCC(=O)N=C1SC2CS(=O)(=O)CC2N1c1ccc(C(C)=O)cc1` (configuration not stated) here?
Answer: inconclusive: 29.1 µM [rising, single point]

Question: With `C/C(=N\NC(=O)c1cc(Cl)ccc1O)c1ccc(Br)s1` as the molecule, how does the Potency read?
Answer: inconclusive: 20.6 µM [cytotoxic, single point]
